These are yes or no findings as the source states them, for the method shown. Some binding calls cover weakened binding; strength is not graded here. Where a sequence is shown, tags or fusion partners need not be part of it.
How the values were obtained:
[1] = biological target: T1, LONESOME HIGHWAY (LHW), Gal4 fusion for yeast two-hybrid and three-hybrid (Arabidopsis) (UniProt Q9XIN0); assay: two-hybrid
T1 sequence: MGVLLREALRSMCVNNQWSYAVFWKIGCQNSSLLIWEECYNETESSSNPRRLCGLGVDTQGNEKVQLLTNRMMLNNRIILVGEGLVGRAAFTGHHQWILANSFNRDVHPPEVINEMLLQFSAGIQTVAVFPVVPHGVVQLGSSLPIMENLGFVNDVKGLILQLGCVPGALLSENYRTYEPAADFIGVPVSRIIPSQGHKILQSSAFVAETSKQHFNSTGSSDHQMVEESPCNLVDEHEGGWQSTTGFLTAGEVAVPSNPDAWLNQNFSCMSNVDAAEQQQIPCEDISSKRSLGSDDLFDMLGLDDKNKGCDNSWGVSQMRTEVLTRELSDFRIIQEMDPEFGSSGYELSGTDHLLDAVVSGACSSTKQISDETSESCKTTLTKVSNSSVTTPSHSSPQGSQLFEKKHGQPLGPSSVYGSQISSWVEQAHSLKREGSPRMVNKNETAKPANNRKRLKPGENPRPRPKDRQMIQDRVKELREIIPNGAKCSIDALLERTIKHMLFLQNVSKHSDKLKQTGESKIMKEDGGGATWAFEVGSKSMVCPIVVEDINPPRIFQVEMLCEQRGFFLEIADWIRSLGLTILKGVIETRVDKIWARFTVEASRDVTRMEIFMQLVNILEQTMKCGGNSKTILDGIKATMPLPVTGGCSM

[2] = biological target: T2, TARGET OF MONOPTEROS 5 (TMO5), Gal4 fusion for yeast two-hybrid and three-hybrid (Arabidopsis) (UniProt Q9LS08); assay: two-hybrid
T2 sequence: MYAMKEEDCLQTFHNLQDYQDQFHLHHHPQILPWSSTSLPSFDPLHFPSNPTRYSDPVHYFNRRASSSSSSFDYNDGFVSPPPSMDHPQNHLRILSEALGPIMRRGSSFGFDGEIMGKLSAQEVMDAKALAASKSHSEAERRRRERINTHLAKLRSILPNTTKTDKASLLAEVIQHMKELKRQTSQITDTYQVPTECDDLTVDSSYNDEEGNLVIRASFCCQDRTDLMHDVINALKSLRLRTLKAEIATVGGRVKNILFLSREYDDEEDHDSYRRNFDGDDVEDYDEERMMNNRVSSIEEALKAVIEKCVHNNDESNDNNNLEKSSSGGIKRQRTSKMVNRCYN

[3] = biological target: T3, TMO5-EGFP-FKBP (Arabidopsis) (UniProt Q9LS08); assay: knock sideways
T3 sequence: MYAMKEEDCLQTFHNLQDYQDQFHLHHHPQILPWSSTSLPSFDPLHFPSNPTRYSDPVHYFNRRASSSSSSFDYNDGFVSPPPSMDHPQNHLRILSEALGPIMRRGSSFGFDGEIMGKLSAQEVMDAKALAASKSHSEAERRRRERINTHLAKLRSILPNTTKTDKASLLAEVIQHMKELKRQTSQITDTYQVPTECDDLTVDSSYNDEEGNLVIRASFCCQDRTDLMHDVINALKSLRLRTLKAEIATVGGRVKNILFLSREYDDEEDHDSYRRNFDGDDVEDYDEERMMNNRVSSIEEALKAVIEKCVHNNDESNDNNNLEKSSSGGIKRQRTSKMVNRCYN

B1: TARGET OF MONOPTEROS 5 (TMO5), Gal4 fusion for yeast two-hybrid and three-hybrid (protein, UniProt Q9LS08 1-344)
chain: MYAMKEEDCLQTFHNLQDYQDQFHLHHHPQILPWSSTSLPSFDPLHFPSNPTRYSDPVHYFNRRASSSSSSFDYNDGFVSPPPSMDHPQNHLRILSEALGPIMRRGSSFGFDGEIMGKLSAQEVMDAKALAASKSHSEAERRRRERINTHLAKLRSILPNTTKTDKASLLAEVIQHMKELKRQTSQITDTYQVPTECDDLTVDSSYNDEEGNLVIRASFCCQDRTDLMHDVINALKSLRLRTLKAEIATVGGRVKNILFLSREYDDEEDHDSYRRNFDGDDVEDYDEERMMNNRVSSIEEALKAVIEKCVHNNDESNDNNNLEKSSSGGIKRQRTSKMVNRCYN
- binding [1]: binds

B2: MYB12, Gal4 fusion for yeast two-hybrid (protein, UniProt O22264 1-371)
chain: MGRAPCCEKVGIKRGRWTAEEDQILSNYIQSNGEGSWRSLPKNAGLKRCGKSCRLRWINYLRSDLKRGNITPEEEELVVKLHSTLGNRWSLIAGHLPGRTDNEIKNYWNSHLSRKLHNFIRKPSISQDVSAVIMTNASSAPPPPQAKRRLGRTSRSAMKPKIHRTKTRKTKKTSAPPEPNADVAGADKEALMVESSGAEAELGRPCDYYGDDCNKNLMSINGDNGVLTFDDDIIDLLLDESDPGHLYTNTTCGGDGELHNIRDSEGARGFSDTWNQGNLDCLLQSCPSVESFLNYDHQVNDASTDEFIDWDCVWQEGSDNNLWHEKENPDSMVSWLLDGDDEATIGNSNCENFGEPLDHDDESALVAWLLS
- binding [2]: binds

B3: MYB12-TagBFP2 (protein, UniProt O22264 1-371)
chain: MGRAPCCEKVGIKRGRWTAEEDQILSNYIQSNGEGSWRSLPKNAGLKRCGKSCRLRWINYLRSDLKRGNITPEEEELVVKLHSTLGNRWSLIAGHLPGRTDNEIKNYWNSHLSRKLHNFIRKPSISQDVSAVIMTNASSAPPPPQAKRRLGRTSRSAMKPKIHRTKTRKTKKTSAPPEPNADVAGADKEALMVESSGAEAELGRPCDYYGDDCNKNLMSINGDNGVLTFDDDIIDLLLDESDPGHLYTNTTCGGDGELHNIRDSEGARGFSDTWNQGNLDCLLQSCPSVESFLNYDHQVNDASTDEFIDWDCVWQEGSDNNLWHEKENPDSMVSWLLDGDDEATIGNSNCENFGEPLDHDDESALVAWLLS
- binding [3]: binds

Source: doi:10.1101/2022.03.08.483486
